Data as given in patent US5457101A (priority 1994, dated 1995).

System: 5-HT-1C receptor

SMILES: Cc1cc2c(s1)Nc1ccccc1N=C2N1CCN(C)CC1 [2-methyl-4-(4-methyl-1-piperazinyl)-10H-thieno-[2,3-b][1,5]benzodiazepine]
- activity at the 5-HT-1C receptor: active
